The other results are listed elsewhere or left out. These are further read-outs of the screen, such as a control signal, another cell line or another target. No call is given for them. Compounds called inactive in the main read-out are mostly missing here. Words in brackets tell the shape of the fitted curve; partial curves, single points and poor fits give uncertain potencies.
Experiment: qHTS Assay for Lipid Storage Modulators in Drosophila S3 Cells;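 on cell number change: cells counted by Cell Tracker Red CMTPX staining in the red channel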
Conditions: BODIPY lipid droplet fluorescence, 18-24 h; for cell number change: measured here: cell count max response, cells fed with added oleic acid
Outline: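 Drosophila S3 cells loaded with oleic acid (400 uM, as added) and compounds at several concentrations; lipid droplets imaged by 488-nm laser-scanning cytometry, 500–530 nm intensity and object ratio to cell channel. Percent activity normalized to 20 uM Triacsin C.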

[1] = measured here: lipid fluorescence (Fed channel) AC50, cells fed with added oleic acid
[2] = measured here: cell number channel AC50, cells fed with added oleic acid

| SMILES | cell number change [%] | AC50 [1] | AC50 [2] |
| --- | --- | --- | --- |
| O=C(CSc1ncccn1)NCc1cccc(Cl)c1 | -24.9 | 32.6 µM [falling, single point] |  |
| Cc1ccc(-c2cnc3ccccc3n2)cc1C | -29.7 | 6.51 µM [rising, single point] |  |
| CCOC(=O)N=S(N)(=O)c1ccccc1 (stereo not drawn) |  | 29.1 µM [falling, partial curve, poor fit] |  |
| COc1ccc(CCNC(=O)CCC(=O)N2CCOc3ccccc32)cc1OC | -7.49 | 29.1 µM [falling, single point] |  |
| NC(=O)c1c(NC(=O)c2cc3ccccc3o2)sc2c1CCC2 | -52.5 |  | 18.4 µM [falling, partial curve, poor fit] |
| COc1ccc(NC(=O)COC(=O)c2cc(OC)c(OC)cc2NC(=O)c2ccco2)cc1OC | -48.1 | 0.651 µM [rising, partial curve, poor fit] | 32.6 µM [falling, single point] |
| O=C1CCCC2=C1C(c1ccncc1)c1c(nc(SCc3ccccc3)[nH]c1=O)N2 (stereo not drawn) | 47.5 |  |  |
| CN(C)CCCNc1nc(-c2ccccc2)c2c(c1C#N)CC(C)(C)OC2 | -31.5 | 2.59 µM [falling, full curve] | 23.1 µM [falling, single point] |
| Cc1ccc2nc(N3CCOCC3)c(C=O)cc2c1 | -7.69 | 0.146 µM [rising, full curve, poor fit] |  |
| COc1ccc(-n2c(C)nn(CC3CC3)c2=O)cc1 | 3.85 |  |  |
| c1ccc(Cc2noc(CN3CCN(CCOc4ccccc4)CC3)n2)cc1 | 15.8 | 11.6 µM [rising, partial curve] |  |
| Cc1[nH]nc2c1C(c1ccc(F)cc1)C1=C(CC(C)(C)CC1=O)N2 (stereo not drawn) | 74.8 | 18.4 µM [rising, partial curve] | 20.6 µM [rising, single point] |
| COc1ccc(CNC(=O)N[C@@H](Cc2c[nH]c3ccccc23)C(=O)O)cc1 | 17.9 | 2.06 µM [rising, partial curve] |  |
| Cc1ccc(OCCCn2ccnc2)c([N+](=O)[O-])c1 | 11 | 32.6 µM [rising, partial curve, poor fit] |  |
| O=C(O)c1c(-c2ccccc2)nnc2ccccc12 | 33.5 | 29.1 µM [rising, single point] | 32.6 µM [rising, single point] |
| COc1ccc(CN2C(=O)C3C4C=CC(C4)C3C2=O)cc1 (stereo not drawn) | 78.4 |  | 23.1 µM [rising, single point] |
| CC(C)Nc1ccc(C(CC(N)=O)NC(=O)c2ccc(Br)cc2)cc1[N+](=O)[O-] (stereo not drawn) | 12.3 | 23.1 µM [rising, single point] |  |
| COC(=O)c1cccc(NC(=O)CN2CCC(NC(=O)c3cc(OC)c(OC)c(OC)c3)CC2)c1 | 16.3 | 2.91 µM [rising, partial curve] |  |
| CCN(CC)CCCn1c(=S)[nH]c2cc(Cl)ccc2c1=O | 15.1 | 2.06 µM [falling, partial curve] |  |

Single values from above.
In cell number change [%], COc1ccc(-n2c(C)nn(CC3CC3)c2=O)cc1 reads 3.85
In AC50 [1], Cc1[nH]nc2c1C(c1ccc(F)cc1)C1=C(CC(C)(C)CC1=O)N2 (stereo not drawn) reads 18.4 µM [rising, partial curve]
In cell number change [%], O=C1CCCC2=C1C(c1ccncc1)c1c(nc(SCc3ccccc3)[nH]c1=O)N2 (stereo not drawn) reads 47.5

Next records.

| SMILES | cell number change [%] | AC50 [1] | AC50 [2] |
| --- | --- | --- | --- |
| O=c1ccc(-c2ccc(S(=O)(=O)NCC3CCN(Cc4cccc(F)c4)CC3)s2)n[nH]1 | 23.9 | 29.1 µM [rising, single point] |  |
| CCOc1ccc(NC(=O)CSc2nc(=O)n(Cc3ccccn3)c3c2CCC3)cc1 | 1.13 |  |  |
| COc1ccc(CC(=O)N/N=C(\C)c2cccs2)cc1OC | -7.51 | 0.411 µM [rising, partial curve, poor fit] |  |
| N#CC(=C1N=c2ccccc2=N1)c1c(O)[nH]c2ccccc12 | 31.1 |  | 32.6 µM [rising, single point] |
| CCCCOC(=O)CCc1nc2ccccc2[nH]1 | 23.6 | 29.1 µM [rising, single point] | 0.206 µM [rising, full curve, poor fit] |
| O=Cc1cn(CC(=O)N2CCCCC2)c2ccccc12 | -62.9 | 6.51 µM [falling, single point] | 20.6 µM [falling, single point] |
| CCc1ccc(NC(=O)CCCN2C(=O)C3CC=CCC3C2=O)cc1 (stereo not drawn) | 3.18 |  |  |
| COc1ccc(C(N)=S)c(OC)c1 | 1.67 | 1.16 µM [rising, single point] | 0.651 µM [rising, full curve, poor fit] |
| O=C(COC(=O)c1cccnc1Cl)NCc1cccs1 | 36.9 | 29.1 µM [rising, single point] | 0.00461 µM [rising, full curve, poor fit] |
| Cc1[nH]c2ccccc2c1C(=O)C(C)OC(=O)c1ccc(NC(=O)CC#N)cc1 (stereo not drawn) |  | 4.61 µM [falling, single point] | 0.651 µM [falling, single point] |
| Cc1cccc(NC(=S)NCc2ccc3[nH]c4c(c3c2)CCCC4)c1 | -32.4 | 18.4 µM [falling, single point] | 16.4 µM [falling, single point] |
| COc1cccc(NC(=O)CN(C)C(C)C(=O)NC(=O)NC2CCCCC2)c1 (stereo not drawn) | 3.88 | 2.91 µM [rising, single point] |  |
| CCC1(CC)Cc2ccccc2-c2nc(CN3CCOCC3)[nH]c(=O)c21 | -15.6 |  |  |
| Cc1n[nH]c(=O)nc1N1CCc2ccccc2C1 | 1.56 | 29.1 µM [rising, single point] |  |
| CCOc1ccccc1-n1c(SCC(N)=O)nnc1-c1ccc(O)cc1 | -5.9 | 6.51 µM [falling, single point] | 6.51 µM [falling, single point] |
| Cc1nc(Nc2ccccc2)[nH]c(=O)c1CCC(C)C | -45.2 |  | 32.6 µM [falling, single point] |
| CCN(CC)c1ccc(/C=C2/C(=O)ON=C2C)cc1 |  | 8.2 µM [falling, partial curve] |  |
| COC(=O)c1sccc1NC(=S)N1CCC(C)CC1 | 43.1 | 1.03 µM [rising, full curve] | 1.3 µM [rising, partial curve] |

Source: PubChem BioAssay AID2685 (National Center for Advancing Translational Sciences (NCATS), 2010)
